Measured values as given in patent publication US9040091B2 (priority 2012, dated 2015).
Some results were stated once for a whole list of compounds, not compound by compound. At least one structure is not confirmed: it was looked up by name or label, or the drawing left a doubt.

Experiment: Americium-241 decorporation in dogs (urine, feces, tissue Am-241)
Type: in vivo, beagle dogs
Settings: tissues collected day 21, dosing days 1-14
Source text: The objective of this study was to evaluate the dose-related efficacy of daily doses of NanoDTPA capsules in male and female beagle dogs intravenously (IV) administered a soluble citrate complex of americium-241 (Am-241). Twenty-four (24) male and female beagle dogs underwent a 14-day quarantine period for acclimation. Once released from quarantine, animals were weighed and randomized into study animals or spares. The average body weight of study animals was 8.6±0.9 kg (males 9.0±1.0 kg; females 8.2±0.7 kg). After randomization, animals were acclimated to metabolism cages for 24 hours prior to radionuclide administration. Animals received a single IV administration of 241Am(III)-citrate on Day 0. One day after radionuclide administration, one of four different doses of NanoDTPA capsules [1, 2, or 6-capsules/day or 2 capsules twice/day], IV Zn-DTPA [15 mg/kg] as a positive control, or IV saline as a placebo were administered. NanoDTPA capsules, IV Zn-DTPA, or IV saline was administered on study days 1-14. Urine and feces were collected daily. Animals were euthanized on day 21 and tissues collected. Urine, fecal, and tissue samples were analyzed for Am-241 content.

For `O=C([O-])CN(CCN(CC(=O)[O-])CC(=O)[O-])CCN(CC(=O)[O-])CC(=O)[O-].[Na+].[Na+].[Na+].[Zn+2]` [Zn-DTPA], the “reduction in Am-241 remaining in liver and kidney compared to the saline placebo” value was 40 to 80%.
